Data from patent US20070166308A1.
Results are given in words; binding and its absence hold for the method and conditions named. Some entries that bind do so weakly or less than the wild type.

T1: human MAdCAM, full length, on cells (human) (UniProt Q13477)
T1 sequence (looked up): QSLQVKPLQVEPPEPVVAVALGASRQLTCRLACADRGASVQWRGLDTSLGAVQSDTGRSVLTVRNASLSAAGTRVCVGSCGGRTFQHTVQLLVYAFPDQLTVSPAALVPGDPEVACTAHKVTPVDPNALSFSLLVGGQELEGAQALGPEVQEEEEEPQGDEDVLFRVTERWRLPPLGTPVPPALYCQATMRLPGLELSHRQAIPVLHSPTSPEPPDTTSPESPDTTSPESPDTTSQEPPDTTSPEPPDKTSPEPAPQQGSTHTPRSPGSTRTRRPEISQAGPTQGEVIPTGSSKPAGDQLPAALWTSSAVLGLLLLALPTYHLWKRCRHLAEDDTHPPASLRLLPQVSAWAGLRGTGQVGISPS


Legend:
[1] = target: MAdCAM-IgG1 Fc fusion protein (human); assay: ELISA on coated MAdCAM-IgG1 Fc
[2] = target: T1, human MAdCAM, full length, on cells (human); assay: immunohistochemistry on human frozen tissue sections
[3] = target: T1, human MAdCAM, full length, on cells (human); assay: binding to CHO cells expressing recombinant human MAdCAM

Binder | binding [1] | binding [2] | binding [3]
anti-MAdCAM monoclonal antibody 6.73.2 (antibody, human IgG4, kappa, V domains shown) VH: EVQLLESGGDLVQPGGSLRLSCAASGFTFRSYAMNWVRQAPGKGLEWVSVISGRGGTTYYADSVKGRFTISRDNSKNTLYLQMNSLRAEDAAVYYCAKIAVAGEGLYYYYGMDVWGQGTTVTVSS VL: DIQMTQSPSSLSASVGDRVTFTCRASQNITNYLNWYQQKPGKAPKLLIYAASSLPRGVPSRFRGSGSGTDFTLTISSLQPEDFATYYCQQSYSNPPECGFGQGTTLDIKR | binds | binds | –
anti-MAdCAM monoclonal antibody 7.26.4 (antibody, human IgG2, kappa, V domains shown) VH: QVQLVQSGAEVKKPGASVKVSCEASGYTFTSYGIDWVRQAPGQGLEWMGWISVYSGNTNYAQKLQGRVTMSTDTSTSTAYMELRSLRSDDTAVYYCAREGSSSSGDYYYGMDVWGQGTTVTVSS VL: DIVMTQTPLSLSVTPGQPASISCKSNQSLLYSDGKTYLFWYLQKPGQPPQLLIYEVSNRFSGVPDRFSGSGSGTDFTLKISRVEAEDVGVYYCMQSIQLPWTFGQGTKVEIKR | – | binds | –
modified anti-MAdCAM monoclonal antibody 7.26.4-mod (antibody, human IgG2, kappa, V domains shown) VH: QVQLVQSGAEVKKPGASVKVSCEASGYTFTSYGIDWVRQAPGQGLEWMGWISVYSGNTNYAQKLQGRVTMSTDTSTSTAYMELRSLRSDDTAVYYCAREGSSSSGDYYYGMDVWGQGTTVTVSS VL: DIVMTQTPLSLSVTPGQPASISCKSSQSLLYSDGKTYLFWYLQKPGQPPQLLIYEVSNRFSGVPDRFSGSGSGTDFTLKISRVEAEDVGVYYCMQSIQLPWTFGQGTKVEIKR | – | – | binds
anti-MAdCAM monoclonal antibody 6.77.1 (antibody, human IgG4, kappa, V domains shown) VH: EVQLVESGGGLVKPGGSLRLSCAASGFTFSSYSMNWVRQAPGKGLEWVSSISSSSSYIYYADSVKGRFTISRDNAKNSLYLQMNSLRAEDTAVYYCARDGYSSGWSYYYYYGMDVWGQGTTVTVSS VL: DIVMTQTPLSLSVTPGQPASISCNSSQSLLLSDGKTYLNWYLQKPGQPPQLLIYEVSNRFSGVPDRFSGSGSGTDFTLKISRVEAEDVGVYSCMQSIQLMCSFGQGTKLEIKR | – | binds | –
modified anti-MAdCAM monoclonal antibody 6.34.2-mod (antibody, human IgG2, kappa, V domains shown) VH: QVQLVESGGGVVQPGRSLRLSCAASGFTFSSYGMHWVRQAPGKGLEWVAVISNDGNNKYYADSVKGRFTISRDNSKNTLYLQMNSLRAEDTAVYYCARDSTAITYYYYGMDVWGQGTTVTVSS VL: DIQMTQSPSSLSASVGDRVTITCRASQSISSYLNWYQQKPGKAPKLLIYAASGLKRGVPSRFSGSGSGTDFTLTISSLQPEDFATYYCHQSYSLPFTFGPGTKVDIKR | – | – | binds

Further lines, results first:

binding [1] | binding [2] | binding [3] | Binder
– | – | binds | modified anti-MAdCAM monoclonal antibody 6.77.1-mod (antibody, human IgG2, kappa, V domains shown) VH: EVQLVESGGGLVKPGGSLRLSCAASGFTFSSYSMNWVRQAPGKGLEWVSSISSSSSYIYYADSVKGRFTISRDNAKNSLYLQMNSLRAEDTAVYYCARDGYSSGWSYYYYYGMDVWGQGTTVTVSS VL: DIVMTQTPLSLSVTPGQPASISCKSSQSLLLSDGKTYLNWYLQKPGQPPQLLIYEVSNRFSGVPDRFSGSGSGTDFTLKISRVEAEDVGVYSCMQSIQLMSSFGQGTKLEIKR
– | binds | – | anti-MAdCAM monoclonal antibody 6.34.2 (antibody, human IgG4, kappa, V domains shown) VH: QVQLVESGGGVVQPGRSLRLSCAASGFTFSSYGMHWVRQAPGKGLEWVAVISNDGNNKYYADSVKGRFTISRDNSKNTLYLQMNSLSAEDTAVYYCARDSTAITYYYYGMDVWGQGTTVTVSS VL: DIQMTQSPSSLSASVGDRVTITCRASQNISSYLNWFQQKPGKAPKLLIYAASGLKRGVPSRFSGSGSGTDFTLTIRTLQPDDFATYSCHQSYSLPFTFGPGTKVDIKR
– | binds | – | anti-MAdCAM monoclonal antibody 6.22.2 (antibody, human IgG4, kappa, V domains shown) VH: QVQLVESGGGVVQPGRSLRLSCAASGHTFSSDGMHWVRQAPGKGLEWVAIIWYDGSNKYYADSVKGRFTISRDNSKNTLYLQMNSLRAEDTAVYYCARDPGYYYGMDVWGQGTTVTVSS VL: EIVLTQSPDFQSVTPKEKVTITCRASQRIGSSLHWYQQKPDQSPKLLIKYASQSFSGVPSRFSGSGSGTNFTLTINGLEAEDAATYYCHQSGRLPLTFGGGTKVEIKR
binds | binds | – | anti-MAdCAM monoclonal antibody 6.14.2 (antibody, human IgG4, kappa, V domains shown) VH: EVQLLESGGGLVQPGGSLRLSCAASGLTFNNSAMTWVRQAPGKGLEWVSTTSGSGGTTYYADSVKGRFTISRDSPKNTLYLQMNSLRAEDTAVYYCAARGYSYGTTPYEYWGQGTLVTVSS VL: DIQMTQSPSSLSASVGDRVTITCRASRSISSYLNWYQQKPGKAPKVLIFFVSSLQSGVPSRFSGSGSGTDFTLTISSLQPEDFATYYCQQNYIPPITFGQGTRLEIRR
